Test results published in article PMC3706418.
These are yes or no findings as the source states them, for the method shown. Binding seen in cells or lysates may run through a third protein. Some entries that bind do so weakly or less than the wild type. Tags and fused reporters may be left off the sequences shown.

Chains of the proteins cited; added tags and fusions are not shown.
UniProt P10415: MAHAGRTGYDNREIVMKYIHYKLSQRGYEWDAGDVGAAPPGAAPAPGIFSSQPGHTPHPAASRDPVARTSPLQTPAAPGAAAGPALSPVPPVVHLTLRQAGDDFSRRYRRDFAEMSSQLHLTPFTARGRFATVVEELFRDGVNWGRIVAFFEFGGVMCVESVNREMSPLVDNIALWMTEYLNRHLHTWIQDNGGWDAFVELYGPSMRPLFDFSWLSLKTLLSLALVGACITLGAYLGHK

B1: GFP-mSHP(FL) (protein, UniProt Q62227 1-260)
chain: MSSGQSGVCPCQGSAGRPTILYALLSPSPRTRPVAPASHSHCLCQQQRPVRLCAPHRTCREALDVLAKTVAFLRNLPSFCHLPHEDQRRLLECCWGPLFLLGLAQDAVTFEVAEAPVPSILKKILLEEASSGTQGAQPSDRPQPSLAAVQWLQRCLESFWSLELGPKEYAYLKGTILFNPDVPGLRASCHIAHLQQEAHWALCEVLEPWYPASQGRLARILLMASTLKNIPGTLLVDLFFRPIMGDVDITELLEDMLLLR

How the values were obtained:
[1] = biological target: T1, GST-mSHP full length (mouse) (UniProt Q62227); experiment: pull-down; GST or GST-mSHP fusion proteins bound to glutathione MagneGST particles; in vitro translated Bcl2 proteins added, without or with AHPN (Fig. 4B); bound Bcl2 detected by Western blot (Bcl2 or Myc antibody); only the target purified
T1 sequence: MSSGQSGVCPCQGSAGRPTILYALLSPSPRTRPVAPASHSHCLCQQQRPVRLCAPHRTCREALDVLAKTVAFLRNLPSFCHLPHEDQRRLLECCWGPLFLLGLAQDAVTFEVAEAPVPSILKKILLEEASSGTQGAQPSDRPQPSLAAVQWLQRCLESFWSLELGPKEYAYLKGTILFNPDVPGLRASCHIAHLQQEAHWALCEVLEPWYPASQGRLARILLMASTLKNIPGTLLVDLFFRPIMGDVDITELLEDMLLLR

HA-HNF4α = biological target: T2, HA-HNF4α (UniProt P41235); experiment: co-IP; HEK293T cells co-transfected with GFP-mSHP constructs and HA-HNF4α; lysate precipitated with anti-HA agarose overnight at 4°C; Western blot with anti-GFP and anti-HA
T2 sequence: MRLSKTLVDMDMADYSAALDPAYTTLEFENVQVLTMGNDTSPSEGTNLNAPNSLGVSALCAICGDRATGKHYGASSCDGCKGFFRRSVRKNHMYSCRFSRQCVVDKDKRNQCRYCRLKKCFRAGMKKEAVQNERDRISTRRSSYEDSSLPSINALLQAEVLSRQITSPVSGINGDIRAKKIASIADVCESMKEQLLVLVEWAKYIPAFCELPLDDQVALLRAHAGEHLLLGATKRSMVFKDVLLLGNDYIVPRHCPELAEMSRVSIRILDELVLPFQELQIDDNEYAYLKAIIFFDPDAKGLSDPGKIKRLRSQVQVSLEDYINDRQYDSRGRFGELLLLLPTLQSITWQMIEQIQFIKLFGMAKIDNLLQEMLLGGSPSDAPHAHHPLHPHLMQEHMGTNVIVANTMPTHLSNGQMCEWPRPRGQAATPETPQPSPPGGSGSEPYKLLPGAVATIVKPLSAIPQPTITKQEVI

binding [1]	binding (HA-HNF4α)	Molecule
binds		Bcl2 wild-type (from UniProt P10415 1-239)
	binds	B1
